According to the supplement of paper PMC10849652:
The list shows a part of the results.

Chains of the proteins cited; added tags and fusions are not shown. Lines headed by an entry give the natural chain unless they say otherwise; changes in a name come on top.
UniProt P50748: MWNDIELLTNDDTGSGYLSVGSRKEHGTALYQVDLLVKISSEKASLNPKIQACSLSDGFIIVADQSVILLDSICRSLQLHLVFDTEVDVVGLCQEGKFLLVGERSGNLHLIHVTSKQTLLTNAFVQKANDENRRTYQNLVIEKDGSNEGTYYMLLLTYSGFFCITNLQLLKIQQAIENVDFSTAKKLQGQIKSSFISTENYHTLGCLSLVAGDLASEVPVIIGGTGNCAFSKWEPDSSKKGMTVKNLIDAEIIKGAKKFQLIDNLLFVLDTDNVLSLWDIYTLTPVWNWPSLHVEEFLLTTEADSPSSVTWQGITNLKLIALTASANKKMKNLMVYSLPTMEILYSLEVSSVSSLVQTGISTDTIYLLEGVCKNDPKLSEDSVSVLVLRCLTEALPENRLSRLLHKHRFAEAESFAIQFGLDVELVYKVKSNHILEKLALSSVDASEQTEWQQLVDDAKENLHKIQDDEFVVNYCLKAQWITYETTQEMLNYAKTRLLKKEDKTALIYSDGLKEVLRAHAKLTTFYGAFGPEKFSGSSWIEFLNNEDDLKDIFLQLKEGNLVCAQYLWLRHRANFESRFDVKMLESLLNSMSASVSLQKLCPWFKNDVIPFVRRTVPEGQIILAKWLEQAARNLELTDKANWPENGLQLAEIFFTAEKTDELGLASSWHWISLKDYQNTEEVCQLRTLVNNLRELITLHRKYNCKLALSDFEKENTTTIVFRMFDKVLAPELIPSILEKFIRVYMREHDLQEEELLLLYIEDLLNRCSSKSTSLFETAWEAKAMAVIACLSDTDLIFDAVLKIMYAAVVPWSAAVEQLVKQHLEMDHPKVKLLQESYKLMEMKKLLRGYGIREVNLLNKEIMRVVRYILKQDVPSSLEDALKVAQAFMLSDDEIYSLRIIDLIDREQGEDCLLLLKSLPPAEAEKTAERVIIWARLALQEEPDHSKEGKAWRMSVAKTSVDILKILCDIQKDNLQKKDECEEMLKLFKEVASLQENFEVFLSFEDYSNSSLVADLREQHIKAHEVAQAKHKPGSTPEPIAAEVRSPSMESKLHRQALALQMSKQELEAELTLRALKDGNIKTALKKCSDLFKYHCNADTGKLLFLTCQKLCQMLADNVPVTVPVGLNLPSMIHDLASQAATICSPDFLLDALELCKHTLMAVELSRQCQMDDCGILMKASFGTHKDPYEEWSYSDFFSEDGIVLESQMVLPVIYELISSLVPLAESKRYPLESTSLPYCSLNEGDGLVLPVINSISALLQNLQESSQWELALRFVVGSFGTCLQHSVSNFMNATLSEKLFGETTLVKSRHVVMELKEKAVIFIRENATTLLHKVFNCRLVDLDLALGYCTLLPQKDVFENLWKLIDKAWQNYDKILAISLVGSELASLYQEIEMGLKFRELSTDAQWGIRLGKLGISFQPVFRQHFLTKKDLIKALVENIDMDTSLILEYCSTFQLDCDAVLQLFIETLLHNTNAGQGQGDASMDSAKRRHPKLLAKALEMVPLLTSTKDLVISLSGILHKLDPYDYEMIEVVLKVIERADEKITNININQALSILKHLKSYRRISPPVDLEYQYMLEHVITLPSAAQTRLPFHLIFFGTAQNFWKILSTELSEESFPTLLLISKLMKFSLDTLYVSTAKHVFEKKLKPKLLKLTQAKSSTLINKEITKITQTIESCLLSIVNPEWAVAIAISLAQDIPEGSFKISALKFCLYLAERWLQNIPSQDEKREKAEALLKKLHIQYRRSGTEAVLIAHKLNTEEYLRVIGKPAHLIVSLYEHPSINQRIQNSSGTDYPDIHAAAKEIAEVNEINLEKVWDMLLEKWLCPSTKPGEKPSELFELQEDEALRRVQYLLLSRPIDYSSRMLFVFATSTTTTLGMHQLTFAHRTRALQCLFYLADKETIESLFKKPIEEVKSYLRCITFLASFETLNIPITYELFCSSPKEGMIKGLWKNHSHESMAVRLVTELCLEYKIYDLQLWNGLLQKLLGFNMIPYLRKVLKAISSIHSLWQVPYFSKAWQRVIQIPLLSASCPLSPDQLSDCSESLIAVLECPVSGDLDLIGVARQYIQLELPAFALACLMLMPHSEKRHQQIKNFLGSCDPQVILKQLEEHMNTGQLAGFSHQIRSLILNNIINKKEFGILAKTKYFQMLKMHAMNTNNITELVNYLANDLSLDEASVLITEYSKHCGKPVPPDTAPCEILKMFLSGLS
UniProt Q9UK76: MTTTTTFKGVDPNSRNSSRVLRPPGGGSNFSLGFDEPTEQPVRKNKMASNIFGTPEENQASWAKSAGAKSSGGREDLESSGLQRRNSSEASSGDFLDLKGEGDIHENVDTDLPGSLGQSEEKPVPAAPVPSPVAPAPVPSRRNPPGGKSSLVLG
UniProt P33947: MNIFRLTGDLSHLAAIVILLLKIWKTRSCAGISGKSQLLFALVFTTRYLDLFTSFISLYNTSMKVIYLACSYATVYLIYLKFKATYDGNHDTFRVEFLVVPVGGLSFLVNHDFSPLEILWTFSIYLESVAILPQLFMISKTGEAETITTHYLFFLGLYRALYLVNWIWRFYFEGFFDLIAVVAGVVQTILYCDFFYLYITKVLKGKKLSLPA
UniProt Q9BY66, whole entry, looked up: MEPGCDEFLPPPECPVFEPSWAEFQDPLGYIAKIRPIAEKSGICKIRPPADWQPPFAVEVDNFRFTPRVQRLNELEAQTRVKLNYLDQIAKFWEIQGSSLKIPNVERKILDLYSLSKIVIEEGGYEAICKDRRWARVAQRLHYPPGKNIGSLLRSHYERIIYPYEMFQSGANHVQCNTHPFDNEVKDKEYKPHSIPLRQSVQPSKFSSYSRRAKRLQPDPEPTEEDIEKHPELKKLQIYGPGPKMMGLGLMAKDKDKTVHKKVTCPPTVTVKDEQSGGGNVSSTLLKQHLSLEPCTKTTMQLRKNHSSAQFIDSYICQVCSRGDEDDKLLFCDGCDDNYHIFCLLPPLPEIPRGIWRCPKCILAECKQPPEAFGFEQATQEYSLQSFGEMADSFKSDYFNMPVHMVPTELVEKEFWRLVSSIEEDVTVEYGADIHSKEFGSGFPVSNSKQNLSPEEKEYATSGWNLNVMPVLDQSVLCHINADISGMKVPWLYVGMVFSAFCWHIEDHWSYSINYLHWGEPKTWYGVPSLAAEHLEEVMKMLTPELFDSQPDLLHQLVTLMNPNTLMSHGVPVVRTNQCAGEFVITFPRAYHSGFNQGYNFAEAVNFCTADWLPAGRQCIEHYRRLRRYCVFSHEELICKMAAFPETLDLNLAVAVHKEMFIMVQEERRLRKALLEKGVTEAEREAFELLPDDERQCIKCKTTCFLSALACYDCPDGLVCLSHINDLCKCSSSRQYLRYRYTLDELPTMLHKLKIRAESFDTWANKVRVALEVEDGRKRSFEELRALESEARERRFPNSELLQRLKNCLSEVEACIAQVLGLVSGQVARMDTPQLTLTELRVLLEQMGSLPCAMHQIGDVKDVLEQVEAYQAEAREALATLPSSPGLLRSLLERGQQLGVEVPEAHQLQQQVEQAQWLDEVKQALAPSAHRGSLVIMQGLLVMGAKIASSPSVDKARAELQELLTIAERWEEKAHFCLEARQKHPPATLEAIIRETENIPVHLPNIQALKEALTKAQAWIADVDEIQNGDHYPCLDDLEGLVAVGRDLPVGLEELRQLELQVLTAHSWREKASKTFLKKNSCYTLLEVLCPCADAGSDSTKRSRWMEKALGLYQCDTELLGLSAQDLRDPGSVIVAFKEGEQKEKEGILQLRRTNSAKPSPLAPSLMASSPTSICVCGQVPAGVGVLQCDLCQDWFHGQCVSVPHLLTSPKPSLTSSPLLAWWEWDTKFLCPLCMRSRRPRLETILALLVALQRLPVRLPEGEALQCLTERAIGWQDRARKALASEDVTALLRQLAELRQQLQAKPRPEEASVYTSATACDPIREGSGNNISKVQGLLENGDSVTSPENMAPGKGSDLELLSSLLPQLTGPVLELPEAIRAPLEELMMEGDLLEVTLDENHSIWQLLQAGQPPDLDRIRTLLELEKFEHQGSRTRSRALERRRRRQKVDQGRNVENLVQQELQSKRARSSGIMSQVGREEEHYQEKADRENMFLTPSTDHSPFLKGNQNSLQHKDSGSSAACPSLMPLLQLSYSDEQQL
UniProt Q9P0J7: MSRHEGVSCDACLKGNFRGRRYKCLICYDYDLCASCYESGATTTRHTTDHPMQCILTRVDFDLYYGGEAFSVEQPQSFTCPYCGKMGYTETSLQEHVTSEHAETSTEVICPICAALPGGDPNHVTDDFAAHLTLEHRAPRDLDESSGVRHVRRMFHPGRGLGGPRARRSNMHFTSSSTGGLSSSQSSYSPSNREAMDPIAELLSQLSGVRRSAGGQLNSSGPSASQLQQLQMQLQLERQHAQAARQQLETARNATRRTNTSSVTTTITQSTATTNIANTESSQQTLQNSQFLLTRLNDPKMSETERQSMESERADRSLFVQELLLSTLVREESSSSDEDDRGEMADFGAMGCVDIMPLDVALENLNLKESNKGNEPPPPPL
UniProt Q9Y448: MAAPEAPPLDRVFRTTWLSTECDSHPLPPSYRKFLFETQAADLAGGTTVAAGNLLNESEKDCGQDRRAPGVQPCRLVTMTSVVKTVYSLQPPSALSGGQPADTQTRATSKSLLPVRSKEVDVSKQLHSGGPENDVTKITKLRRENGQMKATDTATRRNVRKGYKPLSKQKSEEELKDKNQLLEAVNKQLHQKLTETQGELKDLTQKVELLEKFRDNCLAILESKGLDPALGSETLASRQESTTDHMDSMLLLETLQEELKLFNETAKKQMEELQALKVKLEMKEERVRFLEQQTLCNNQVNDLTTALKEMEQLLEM
UniProt Q96A73: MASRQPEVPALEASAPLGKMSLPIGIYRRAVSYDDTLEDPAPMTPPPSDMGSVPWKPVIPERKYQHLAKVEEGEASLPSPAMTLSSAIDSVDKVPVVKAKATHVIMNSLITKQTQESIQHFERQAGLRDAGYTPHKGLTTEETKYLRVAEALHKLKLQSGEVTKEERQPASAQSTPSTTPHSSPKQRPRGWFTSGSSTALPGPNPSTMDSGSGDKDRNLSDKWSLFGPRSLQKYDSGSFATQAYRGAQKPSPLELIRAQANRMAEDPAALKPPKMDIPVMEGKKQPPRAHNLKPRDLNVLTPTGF
UniProt Q14974, whole entry, looked up: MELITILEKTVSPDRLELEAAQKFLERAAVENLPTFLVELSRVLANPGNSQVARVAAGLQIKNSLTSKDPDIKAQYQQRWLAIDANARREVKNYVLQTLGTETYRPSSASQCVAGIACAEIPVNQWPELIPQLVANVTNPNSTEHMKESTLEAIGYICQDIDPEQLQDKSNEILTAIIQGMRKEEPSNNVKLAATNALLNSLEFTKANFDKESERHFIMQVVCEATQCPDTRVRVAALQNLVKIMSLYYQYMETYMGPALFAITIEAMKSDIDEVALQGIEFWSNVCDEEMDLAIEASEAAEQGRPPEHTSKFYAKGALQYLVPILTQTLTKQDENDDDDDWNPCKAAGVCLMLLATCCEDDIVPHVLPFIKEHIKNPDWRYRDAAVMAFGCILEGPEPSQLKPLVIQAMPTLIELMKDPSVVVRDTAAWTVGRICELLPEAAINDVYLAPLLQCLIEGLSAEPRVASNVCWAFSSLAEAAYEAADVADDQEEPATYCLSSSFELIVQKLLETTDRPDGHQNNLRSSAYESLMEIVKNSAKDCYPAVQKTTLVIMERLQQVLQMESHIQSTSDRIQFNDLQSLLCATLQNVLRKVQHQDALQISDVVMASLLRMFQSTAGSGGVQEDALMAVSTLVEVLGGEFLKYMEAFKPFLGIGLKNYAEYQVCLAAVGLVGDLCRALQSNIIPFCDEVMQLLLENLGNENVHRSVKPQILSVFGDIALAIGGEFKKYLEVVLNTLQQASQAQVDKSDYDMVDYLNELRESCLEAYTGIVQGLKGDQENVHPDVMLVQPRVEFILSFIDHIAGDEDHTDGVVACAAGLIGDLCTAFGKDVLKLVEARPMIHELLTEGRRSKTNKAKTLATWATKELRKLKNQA

Key:
Test in all cases: log2 fold change, soluble protein after heating vs DMSO (PISA); higher = thermal stabilisation; K562 cells, 10 uM, 30 min; active = over 0.2 and 3.5 SD of the protein, either way, in both replicates (recomputed)
[1] = compound: COC1=CC=C(C=C1)CN2C=CC3=C2C=C(C=C3)C(=O)NO
Procedure, shortened: (§1)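 K562 cells at 2×10^6 cells/mL were given 10 μM compound for 30 min. Aliquots then went through 3 min of heating across 48°C-58°C, were pooled, and were extracted in PBS with 0.5% NP-40 at 4°C, and the supernatant after 21,000xg for 90 min was quantified by TMTpro 16plex LC-MS/MS with channel sums equalised. Thermal stability relative to control samples, from duplicates, is given as log2 fold change.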

filanesib = compound: CON(C)C(=O)N1N=C(c2cc(F)ccc2F)S[C@@]1(CCCN)c1ccccc1 [filanesib]
Procedure, shortened: as §1

zotarolimus = compound: CO[C@H]1C[C@@H]2CC[C@@H](C)[C@@](O)(O2)C(=O)C(=O)N2CCCC[C@H]2C(=O)O[C@H]([C@H](C)C[C@@H]2CC[C@H](n3cnnn3)[C@H](OC)C2)CC(=O)[C@H](C)/C=C(\C)[C@@H](O)[C@@H](OC)C(=O)[C@H](C)C[C@H](C)/C=C/C=C/C=C/1C [zotarolimus]
Procedure, shortened: as §1

idasanutlin = compound: COc1cc(C(=O)O)ccc1NC(=O)[C@@H]1N[C@@H](CC(C)(C)C)[C@](C#N)(c2ccc(Cl)cc2F)[C@H]1c1cccc(Cl)c1F [idasanutlin]
Procedure, shortened: as §1

alisertib = compound: COc1cc(Nc2ncc3c(n2)-c2ccc(Cl)cc2C(c2c(F)cccc2OC)=NC3)ccc1C(=O)O [alisertib]
Procedure, shortened: as §1

[2] = compound: COc1cc2nc(-c3cc(F)ccc3O)nc(N[C@@H]3CNC[C@H]3C(C)(C)O)c2cc1OC
Procedure, shortened: as §1

gefitinib = compound: COc1cc2ncnc(Nc3ccc(F)c(Cl)c3)c2cc1OCCCN1CCOCC1 [gefitinib]
Procedure, shortened: as §1

[3] = compound: COc1cccc2cc(-c3nc([C@H]4CC[C@H](C(=O)O)CC4)n4ncnc(N)c34)[nH]c12
Procedure, shortened: as §1

lapatinib = compound: CS(=O)(=O)CCNCc1ccc(-c2ccc3ncnc(Nc4ccc(OCc5cccc(F)c5)c(Cl)c4)c3c2)o1 [lapatinib]
Procedure, shortened: as §1

pictilisib = compound: CS(=O)(=O)N1CCN(Cc2cc3nc(-c4cccc5[nH]ncc45)nc(N4CCOCC4)c3s2)CC1 [pictilisib]
Procedure, shortened: as §1

[4] = compound: CS(=O)(=O)c1ccc(-c2cnc(N)c(C(=O)Nc3ccccc3)n2)cc1
Procedure, shortened: as §1

crizotinib = compound: C[C@@H](Oc1cc(-c2cnn(C3CCNCC3)c2)cnc1N)c1c(Cl)ccc(F)c1Cl [crizotinib]
Procedure, shortened: as §1

[5] = compound: C[C@@H]1COCCN1C2=NC(=NC(=C2)C3(CC3)S(=O)(=O)C)C4=C5C=CNC5=CC=C4
Procedure, shortened: as §1

[6] = compound: C[C@H](C1=CC=C(C=C1)C(=O)NC2=C3C=CNC3=NC=C2)N
Procedure, shortened: as §1

gandotinib = compound: Cc1cc(Nc2cc(CN3CCOCC3)c3nc(C)c(Cc4ccc(Cl)cc4F)n3n2)n[nH]1 [gandotinib]
Procedure, shortened: as §1

[7] = compound: Cc1cc(SCc2sc(-c3ccc(C(F)(F)F)cc3)nc2C)ccc1OCC(=O)O
Procedure, shortened: as §1

doramapimod = compound: Cc1ccc(-n2nc(C(C)(C)C)cc2NC(=O)Nc2ccc(OCCN3CCOCC3)c3ccccc23)cc1 [doramapimod]
Procedure, shortened: as §1

ispinesib = compound: Cc1ccc(C(=O)N(CCCN)[C@@H](c2nc3cc(Cl)ccc3c(=O)n2Cc2ccccc2)C(C)C)cc1 [ispinesib]
Procedure, shortened: as §1

duvelisib = compound: C[C@H](Nc1ncnc2nc[nH]c12)c1cc2cccc(Cl)c2c(=O)n1-c1ccccc1 [duvelisib]
Procedure, shortened: as §1

tozasertib = compound: Cc1cc(Nc2cc(N3CCN(C)CC3)nc(Sc3ccc(NC(=O)C4CC4)cc3)n2)n[nH]1 [tozasertib]
Procedure, shortened: as §1

Row | Target | log2 fold change [1] | log2 fold change (filanesib) | log2 fold change (zotarolimus) | log2 fold change (idasanutlin) | log2 fold change (alisertib) | log2 fold change [2] | log2 fold change (gefitinib) | log2 fold change [3] | log2 fold change (lapatinib) | log2 fold change (pictilisib) | log2 fold change [4] | log2 fold change (crizotinib) | log2 fold change [5] | log2 fold change [6] | log2 fold change (gandotinib) | log2 fold change [7] | log2 fold change (doramapimod) | log2 fold change (ispinesib) | log2 fold change (duvelisib) | log2 fold change (tozasertib)
1 | KEAP1 (UniProt Q14145) | inactive: 0.005 | inactive: 0.028 | inactive: 0.036 | inactive: -0.019 | inactive: -0.018 | inactive: 0.005 | inactive: 0.03 | inactive: -0.066 | inactive: 0.007 | inactive: -0.02 | inactive: 0.011 | inactive: -0.077 | inactive: -0.095 | inactive: 0.111 | inactive: -0.176 | inactive: 0.049 | inactive: 0.089 | inactive: -0.102 | – | –
2 | KEL (UniProt P23276) | inactive: -0.042 | inactive: 0.034 | inactive: -0.043 | inactive: 0.055 | inactive: 0.177 | inactive: -0.015 | inactive: 0.07 | inactive: 0.176 | inactive: -0.078 | inactive: 0.194 | inactive: 0.002 | inactive: 0.084 | inactive: -0.048 | inactive: -0.07 | inactive: -0.341 | inactive: 0.019 | inactive: 0.028 | inactive: 0.047 | – | –
3 | KNTC1 (UniProt P50748) | inactive: 0.03 | inactive: -0.008 | inactive: 0 | inactive: -0.082 | inactive: -0.035 | inactive: 0.036 | inactive: 0.175 | inactive: -0.037 | inactive: 0.008 | inactive: 0.007 | inactive: 0.038 | inactive: -0.178 | inactive: -0.002 | inactive: 0.045 | inactive: -0.162 | inactive: 0.012 | inactive: -0.01 | inactive: -0.086 | – | –
4 | KDM1A isoform 2 (UniProt O60341) | inactive: 0.019 | inactive: 0.004 | inactive: -0.009 | inactive: -0.03 | inactive: -0.055 | inactive: 0.07 | inactive: 0.022 | inactive: -0.036 | inactive: 0.068 | inactive: -0.008 | inactive: -0.047 | inactive: -0.036 | inactive: 0.018 | inactive: -0.011 | inactive: 0.014 | inactive: 0.061 | inactive: -0.028 | inactive: -0.057 | – | –
5 | JPT1 (UniProt Q9UK76) | inactive: 0.077 | inactive: -0.018 | inactive: 0.005 | inactive: 0.023 | inactive: -0.048 | inactive: -0.086 | inactive: 0.022 | inactive: 0.048 | inactive: 0.042 | inactive: 0.012 | inactive: -0.001 | inactive: 0.041 | inactive: -0.02 | inactive: -0.082 | inactive: -0.002 | inactive: -0.06 | inactive: 0.03 | inactive: -0.021 | inactive: 0.009 | inactive: -0.004
6 | JMJD6 isoform 3 (UniProt Q6NYC1) | inactive: -0.061 | inactive: -0.039 | inactive: 0.03 | inactive: 0.019 | inactive: 0.013 | inactive: -0.088 | inactive: 0.059 | inactive: -0.021 | inactive: -0.016 | inactive: 0.039 | inactive: -0.037 | inactive: 0.046 | inactive: 0.046 | inactive: -0.034 | inactive: -0.147 | inactive: 0.029 | inactive: 0.005 | inactive: 0.039 | – | –
7 | KDELR2 (UniProt P33947) | inactive: -0.155 | inactive: -0.105 | inactive: 0.035 | inactive: -0.162 | inactive: -0.014 | inactive: -0.136 | inactive: -0.064 | inactive: 0.048 | inactive: -0.127 | inactive: -0.013 | inactive: 0.056 | inactive: 0.035 | inactive: 0.205 | inactive: -0.096 | inactive: -0.107 | inactive: -0.007 | inactive: 0.016 | inactive: 0.016 | – | –
8 | KDM5D isoform 3 (UniProt Q9BY66) | active: -0.592 | inactive: 0.073 | inactive: -0.053 | inactive: -0.058 | inactive: -0.044 | inactive: 0.045 | inactive: -0.021 | inactive: -0.072 | inactive: -0.047 | inactive: 0.049 | inactive: -0.004 | inactive: 0.038 | inactive: -0.005 | inactive: -0.054 | inactive: -0.051 | inactive: 0.125 | inactive: 0.108 | inactive: 0 | – | –
9 | KDM3B (UniProt Q7LBC6) | inactive: 0.01 | inactive: 0.001 | inactive: 0.033 | inactive: -0.026 | inactive: 0.021 | inactive: 0.065 | inactive: 0.008 | inactive: -0.029 | inactive: -0.014 | inactive: 0.012 | inactive: 0.045 | inactive: 0.001 | inactive: 0.086 | inactive: -0.044 | inactive: -0.045 | inactive: 0.012 | inactive: -0.077 | inactive: 0.015 | – | –
10 | KIF1B isoform 4 (UniProt O60333) | inactive: 0.008 | inactive: -0.128 | inactive: 0.024 | inactive: -0.006 | inactive: -0.044 | inactive: -0.014 | inactive: -0.004 | inactive: -0.04 | inactive: 0.013 | inactive: 0.037 | inactive: 0.002 | inactive: -0.067 | inactive: 0.048 | inactive: 0.035 | inactive: -0.043 | inactive: 0.052 | inactive: 0.029 | inactive: -0.149 | – | –
11 | KCMF1 (UniProt Q9P0J7) | inactive: -0.006 | inactive: 0.043 | inactive: 0.04 | inactive: -0.051 | inactive: -0.087 | inactive: 0.057 | inactive: -0.077 | inactive: -0.004 | inactive: 0.189 | inactive: -0.241 | inactive: 0.086 | inactive: -0.078 | inactive: -0.311 | inactive: 0.078 | inactive: -0.145 | – | inactive: 0.003 | inactive: 0.021 | – | inactive: -0.029
12 | KNSTRN (UniProt Q9Y448) | inactive: -0.01 | inactive: 0.103 | inactive: -0.009 | inactive: 0.151 | inactive: -0.092 | inactive: 0.033 | inactive: 0.006 | inactive: -0.101 | inactive: 0.005 | inactive: 0.033 | inactive: -0.056 | inactive: 0.004 | inactive: -0.158 | inactive: 0.07 | inactive: 0.016 | inactive: 0.017 | inactive: 0.033 | inactive: -0.09 | inactive: -0.024 | inactive: 0.035
13 | KPNA6 (UniProt O60684) | inactive: 0.193 | inactive: 0.115 | inactive: 0.169 | inactive: -0.031 | inactive: -0.01 | inactive: 0.056 | inactive: 0.048 | inactive: -0.066 | inactive: -0.018 | inactive: -0.017 | inactive: -0.01 | inactive: -0.11 | inactive: -0.011 | inactive: 0.138 | inactive: -0.028 | inactive: 0.07 | inactive: 0.046 | inactive: -0.202 | – | –
14 | KIAA1191 (UniProt Q96A73) | inactive: 0.01 | inactive: -0.048 | inactive: -0.007 | inactive: -0.016 | inactive: -0.059 | inactive: 0.036 | inactive: 0.024 | inactive: 0.199 | inactive: 0.018 | inactive: 0.024 | inactive: 0.113 | inactive: -0.058 | inactive: 0.081 | inactive: -0.02 | inactive: -0.142 | inactive: -0.034 | inactive: -0.008 | inactive: 0.04 | inactive: 0.14 | inactive: -0.002
15 | KPNA4 (UniProt O00629) | inactive: 0.017 | inactive: -0.028 | inactive: 0.015 | inactive: -0.068 | inactive: -0.026 | inactive: -0.091 | inactive: 0.041 | inactive: 0.044 | inactive: -0.017 | inactive: -0.025 | inactive: 0.004 | inactive: -0.003 | inactive: 0.024 | inactive: -0.073 | inactive: -0.032 | inactive: 0.014 | inactive: -0.046 | inactive: 0.037 | – | –
16 | KPNB1 (UniProt Q14974) | inactive: 0.033 | inactive: -0.024 | inactive: 0.052 | inactive: -0.048 | inactive: -0.07 | inactive: -0.065 | inactive: -0.063 | inactive: -0.076 | inactive: -0.001 | inactive: -0.032 | inactive: -0.027 | inactive: -0.201 | inactive: -0.038 | inactive: 0.047 | inactive: -0.09 | inactive: 0.083 | inactive: 0.026 | inactive: -0.225 | – | –
17 | KCTD9 (UniProt Q7L273) | inactive: 0.024 | inactive: 0.012 | inactive: -0.015 | inactive: -0.015 | inactive: -0.103 | inactive: 0.013 | inactive: 0.064 | inactive: -0.026 | inactive: -0.002 | inactive: 0.015 | inactive: 0.022 | inactive: 0.036 | inactive: -0.052 | inactive: -0.115 | inactive: 0.015 | inactive: -0.013 | inactive: -0.02 | inactive: 0.114 | inactive: 0.095 | inactive: 0.026

Full records from above. Order of values: log2 fold change [1] | log2 fold change (filanesib) | log2 fold change (zotarolimus) | log2 fold change (idasanutlin) | log2 fold change (alisertib) | log2 fold change [2] | log2 fold change (gefitinib) | log2 fold change [3] | log2 fold change (lapatinib) | log2 fold change (pictilisib) | log2 fold change [4] | log2 fold change (crizotinib) | log2 fold change [5] | log2 fold change [6] | log2 fold change (gandotinib) | log2 fold change [7] | log2 fold change (doramapimod) | log2 fold change (ispinesib) | log2 fold change (duvelisib) | log2 fold change (tozasertib)
KDM1A isoform 2 (UniProt O60341) in the list: inactive: 0.019 | inactive: 0.004 | inactive: -0.009 | inactive: -0.03 | inactive: -0.055 | inactive: 0.07 | inactive: 0.022 | inactive: -0.036 | inactive: 0.068 | inactive: -0.008 | inactive: -0.047 | inactive: -0.036 | inactive: 0.018 | inactive: -0.011 | inactive: 0.014 | inactive: 0.061 | inactive: -0.028 | inactive: -0.057 | – | –
KEAP1 (UniProt Q14145) in the list: inactive: 0.005 | inactive: 0.028 | inactive: 0.036 | inactive: -0.019 | inactive: -0.018 | inactive: 0.005 | inactive: 0.03 | inactive: -0.066 | inactive: 0.007 | inactive: -0.02 | inactive: 0.011 | inactive: -0.077 | inactive: -0.095 | inactive: 0.111 | inactive: -0.176 | inactive: 0.049 | inactive: 0.089 | inactive: -0.102 | – | –
